US5889029A, “Use of cotinine in treating psychiatric disorders” (priority 1997, dated 1999)

Molecular target: Serotonin (Non-Selective)
Assay: Serotonin (Non-Selective) Binding Assay
Conditions: reference compounds; Rat cortical membranes; [3H]Lysergic acid diethylamide

Structure (SMILES): O=C(CCCN1CCC2(CC1)C(=O)NCN2c1ccccc1)c1ccc(F)cc1 [Spiperone, reference compound]
- Ki: 18 nM
